For assay [1], the target named is T1, human RIG-I (human) (UniProt O95786).
T1 sequence: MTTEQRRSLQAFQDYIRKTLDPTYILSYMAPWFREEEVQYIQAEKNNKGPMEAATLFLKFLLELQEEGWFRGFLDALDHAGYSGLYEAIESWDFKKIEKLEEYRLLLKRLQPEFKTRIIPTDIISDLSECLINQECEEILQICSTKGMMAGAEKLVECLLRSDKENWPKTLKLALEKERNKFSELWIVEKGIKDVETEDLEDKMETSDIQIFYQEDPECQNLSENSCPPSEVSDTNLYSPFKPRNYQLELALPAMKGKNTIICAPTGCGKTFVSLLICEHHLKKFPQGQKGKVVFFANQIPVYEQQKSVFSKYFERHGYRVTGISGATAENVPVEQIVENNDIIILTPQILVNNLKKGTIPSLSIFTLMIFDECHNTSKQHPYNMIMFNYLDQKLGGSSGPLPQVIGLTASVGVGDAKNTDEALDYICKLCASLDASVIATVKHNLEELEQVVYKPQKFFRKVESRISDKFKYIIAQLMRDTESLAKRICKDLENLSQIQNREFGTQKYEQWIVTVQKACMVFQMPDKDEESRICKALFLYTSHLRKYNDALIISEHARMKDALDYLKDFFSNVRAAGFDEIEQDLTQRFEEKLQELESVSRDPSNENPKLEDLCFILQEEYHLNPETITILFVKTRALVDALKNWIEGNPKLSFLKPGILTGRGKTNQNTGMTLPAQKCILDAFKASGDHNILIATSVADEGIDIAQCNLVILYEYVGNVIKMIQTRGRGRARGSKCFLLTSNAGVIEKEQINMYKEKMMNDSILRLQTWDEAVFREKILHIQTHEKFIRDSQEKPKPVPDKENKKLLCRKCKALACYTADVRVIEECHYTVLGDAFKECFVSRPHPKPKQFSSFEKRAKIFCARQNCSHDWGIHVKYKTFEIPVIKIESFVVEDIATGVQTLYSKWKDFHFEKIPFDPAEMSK
Briefly: co-IP; 293T cells transfected with equal amounts of Flag- and Myc-tagged plasmids, lysed 24 h after transfection; anti-Flag IP with protein A + G agarose overnight at 4°C, Western blot with c-Myc antibody.

For assay [2], the target named is T2, duck RIG-I, Gal4 DNA-binding domain fusion (bait) (duck) (UniProt D3TI84).
T2 sequence: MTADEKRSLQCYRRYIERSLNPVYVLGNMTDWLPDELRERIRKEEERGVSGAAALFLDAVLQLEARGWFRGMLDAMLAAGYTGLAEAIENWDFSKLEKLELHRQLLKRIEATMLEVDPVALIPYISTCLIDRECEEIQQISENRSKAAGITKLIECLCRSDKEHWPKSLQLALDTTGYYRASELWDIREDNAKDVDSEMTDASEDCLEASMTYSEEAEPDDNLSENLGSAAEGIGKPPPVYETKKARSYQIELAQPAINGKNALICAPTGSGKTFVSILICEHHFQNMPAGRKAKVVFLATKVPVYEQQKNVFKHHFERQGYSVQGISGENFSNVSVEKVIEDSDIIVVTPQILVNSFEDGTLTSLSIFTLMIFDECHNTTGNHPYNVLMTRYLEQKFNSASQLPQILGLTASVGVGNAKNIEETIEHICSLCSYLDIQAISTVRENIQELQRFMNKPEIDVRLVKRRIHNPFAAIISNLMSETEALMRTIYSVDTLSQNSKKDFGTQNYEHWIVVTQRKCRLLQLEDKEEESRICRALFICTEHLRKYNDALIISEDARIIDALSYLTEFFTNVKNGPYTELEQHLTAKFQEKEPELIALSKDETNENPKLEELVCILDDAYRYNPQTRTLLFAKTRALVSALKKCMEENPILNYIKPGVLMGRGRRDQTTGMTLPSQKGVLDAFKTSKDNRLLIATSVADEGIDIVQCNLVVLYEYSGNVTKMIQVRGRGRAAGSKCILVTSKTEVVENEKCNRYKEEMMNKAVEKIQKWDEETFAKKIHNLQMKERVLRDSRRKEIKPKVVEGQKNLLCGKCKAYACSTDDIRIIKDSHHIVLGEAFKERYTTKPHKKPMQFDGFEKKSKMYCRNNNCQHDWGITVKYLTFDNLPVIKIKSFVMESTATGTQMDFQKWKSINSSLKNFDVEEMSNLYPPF
The experiment in a line: two-hybrid; full-length RIG-I as Gal4 DNA-binding domain bait (pGBKT7), OASL proteins as prey (pGADT7), S. cerevisiae AH109; selection on double-, triple- and quadruple-dropout medium.

For assay [3], the target named is T3, mouse RIG-I (mouse) (UniProt Q6Q899).
T3 sequence: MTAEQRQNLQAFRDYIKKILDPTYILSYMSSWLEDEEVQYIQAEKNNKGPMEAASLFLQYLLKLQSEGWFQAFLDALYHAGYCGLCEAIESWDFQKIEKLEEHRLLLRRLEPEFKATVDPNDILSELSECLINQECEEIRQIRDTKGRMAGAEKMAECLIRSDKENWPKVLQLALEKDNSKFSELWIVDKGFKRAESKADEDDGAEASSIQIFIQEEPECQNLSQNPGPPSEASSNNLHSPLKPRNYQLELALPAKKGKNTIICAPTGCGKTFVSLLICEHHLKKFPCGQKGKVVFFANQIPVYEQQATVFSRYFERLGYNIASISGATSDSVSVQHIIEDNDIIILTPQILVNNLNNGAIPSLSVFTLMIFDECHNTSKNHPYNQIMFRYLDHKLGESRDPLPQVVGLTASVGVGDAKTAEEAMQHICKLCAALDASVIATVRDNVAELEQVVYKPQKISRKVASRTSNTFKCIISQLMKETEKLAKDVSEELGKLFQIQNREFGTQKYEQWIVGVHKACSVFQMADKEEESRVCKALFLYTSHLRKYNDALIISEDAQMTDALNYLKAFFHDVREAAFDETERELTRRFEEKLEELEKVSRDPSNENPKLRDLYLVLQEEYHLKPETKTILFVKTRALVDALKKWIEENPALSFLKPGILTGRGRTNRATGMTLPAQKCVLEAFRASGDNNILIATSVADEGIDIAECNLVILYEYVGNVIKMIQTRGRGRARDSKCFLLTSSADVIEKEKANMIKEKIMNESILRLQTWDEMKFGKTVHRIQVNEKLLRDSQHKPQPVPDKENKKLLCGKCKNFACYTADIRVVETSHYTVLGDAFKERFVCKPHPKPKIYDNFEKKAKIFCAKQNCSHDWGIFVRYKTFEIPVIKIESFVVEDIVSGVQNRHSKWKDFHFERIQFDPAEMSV
The experiment in a line: co-IP; 293T cells transfected with equal amounts of Flag- and Myc-tagged plasmids, lysed 24 h after transfection; anti-Flag IP with protein A + G agarose overnight at 4°C, Western blot with c-Myc antibody.

These are yes or no findings as the source states them, for the method shown. For part of these data: Binding seen in cells or lysates may run through a third protein. Some results given as binding are weak or reduced against the parent protein; the word gives no strength. For part of these data: Where a sequence is shown, tags or fusion partners need not be part of it.

B1: human OASL-3D (protein, UniProt Q15646 1-514)
chain: MALMQELYSTPASRLDSFVAQWLQPHREWKEEVLDAVRTVEEFLRQEHFQGKRGLDQDVRVLKVVKVGSFGNGTVLRSTRDVDLVAFLSCFHSFQEAAKHHKDVLRLIWKTMWQSQDLLDLGLEDLRMEQRVPDALVFTIQTRGTAEPITVDIVPAYRALGPSLPNSQPPPEVYVSLIKACGGPGNFCPSFSELQRNFVKHRPTKLKSLLRLVKHWYQQYVKARSPRANLPPLYALELLTIYAWEMGTEEDENFMLDEGFTTVMDLLLEYEVICIYWTKYYTLHNAIIEDCVRKQLKKERPIILDPADPTLNVAEGYRWDIVAQRASQCLKQDCCYDNRENPISSWNVKRARDIHLTVEQRGYPDFNLIVNPYEPIRKVKEKIRRTRGYSGLQRLSFQVPGSERQLLSSRCSLAKYGIFSHTHIYLLETIPSEIQVFVKNPDGGSYAYAINPNSFILGLKQQIEDQQGLPKKQQQLEFQGQVLQDWLGLGIYGIQDSDTLILSKKKGEALFPAS
Take B1: the binding entry in assay [1] is “binds”.

B2: human OASL, two-hybrid prey (protein, UniProt Q15646 1-514)
chain: MALMQELYSTPASRLDSFVAQWLQPHREWKEEVLDAVRTVEEFLRQEHFQGKRGLDQDVRVLKVVKVGSFGNGTVLRSTREVELVAFLSCFHSFQEAAKHHKDVLRLIWKTMWQSQDLLDLGLEDLRMEQRVPDALVFTIQTRGTAEPITVTIVPAYRALGPSLPNSQPPPEVYVSLIKACGGPGNFCPSFSELQRNFVKHRPTKLKSLLRLVKHWYQQYVKARSPRANLPPLYALELLTIYAWEMGTEEDENFMLDEGFTTVMDLLLEYEVICIYWTKYYTLHNAIIEDCVRKQLKKERPIILDPADPTLNVAEGYRWDIVAQRASQCLKQDCCYDNRENPISSWNVKRARDIHLTVEQRGYPDFNLIVNPYEPIRKVKEKIRRTRGYSGLQRLSFQVPGSERQLLSSRCSLAKYGIFSHTHIYLLETIPSEIQVFVKNPDGGSYAYAINPNSFILGLKQQIEDQQGLPKKQQQLEFQGQVLQDWLGLGIYGIQDSDTLILSKKKGEALFPAS
As for B2, the binding entry in assay [2] was “no binding”.

B3: mouse Oasl2 (protein, UniProt Q9Z2F2 1-508)
chain: MDPFPDLYATPGDSLDHFLEHSLQPQRDWKEEGQDAWERIERFFREQCFRDELLLDQEVRVIKVVKGGSSGKGTTLNHRSDQDMILFLSCFSSFEEQARNREVVISFIKKRLIHCSRSLAYNIIVLTHREGKRAPRSLTLKVQSRKTDDIIWMDILPAYDALGPISRDSKPAPAIYETLIRSKGYPGDFSPSFTELQRHFVKTRPVKLKNLLRLVKFWYLQCLRRKYGRGAVLPSKYALELLTIYAWEMGTESSDSFNLDEGFVAVMELLVNYRDICIYWTKYYNFQNEVVRNFLKKQLKGDRPIILDPADPTNNLGRRKGWEQVAAEAAFCLLQVCCTTVGPSERWNVQRARDVQVRVKQTGTVDWTLWTNPYSPIRKMKAEIRREKNFGGELRISFQEPGGERQLLSSRKTLADYGIFSKVNIQVLETFPPEILVFVKYPGGQSKPFTIDPDDTILDLKEKIEDAGGPCAEDQVLLLDDEELEDDESLKELEIKDCDTIILIRVID
With B3, the binding entry in assay [3] is listed as “binds”.
